Compound in this test: CN[C@@H]1C[C@H]2O[C@@](C)([C@@H]1OC)n1c3ccccc3c3c4c(c5c6ccccc6n2c5c31)C(=O)NC4 [staurosporine]
Put plainly: log2 fold change of tryptic peptide abundance, ligand vs vehicle (limited proteolysis) (log2 ratio); higher = more trypsin-susceptible (destabilized). The following applies: ligand concentration: 20 uM; sample: K562 cleared lysate; digestion: 4 min, 22 C (HT-PELSA RT4min, Orbitrap Astral).

Protein sequences, listed by entry. Tags and fused reporters are not part of them. Lines headed by an entry give the natural chain unless they say otherwise; changes in a name come on top.
UniProt P26038, whole entry: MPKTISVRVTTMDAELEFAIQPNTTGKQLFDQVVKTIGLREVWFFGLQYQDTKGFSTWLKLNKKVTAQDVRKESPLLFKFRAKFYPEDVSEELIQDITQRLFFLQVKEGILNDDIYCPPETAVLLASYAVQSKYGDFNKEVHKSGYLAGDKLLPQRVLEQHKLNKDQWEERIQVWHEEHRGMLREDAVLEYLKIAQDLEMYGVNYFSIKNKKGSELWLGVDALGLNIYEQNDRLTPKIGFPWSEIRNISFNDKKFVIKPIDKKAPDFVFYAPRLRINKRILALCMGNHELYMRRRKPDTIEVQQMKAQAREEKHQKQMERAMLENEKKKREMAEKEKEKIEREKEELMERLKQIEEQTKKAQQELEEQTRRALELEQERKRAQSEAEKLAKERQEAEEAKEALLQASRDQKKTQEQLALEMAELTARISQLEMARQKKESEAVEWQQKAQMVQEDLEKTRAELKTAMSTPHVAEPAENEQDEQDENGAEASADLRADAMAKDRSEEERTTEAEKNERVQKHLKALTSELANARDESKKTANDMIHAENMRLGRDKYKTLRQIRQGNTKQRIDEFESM
UniProt P16949: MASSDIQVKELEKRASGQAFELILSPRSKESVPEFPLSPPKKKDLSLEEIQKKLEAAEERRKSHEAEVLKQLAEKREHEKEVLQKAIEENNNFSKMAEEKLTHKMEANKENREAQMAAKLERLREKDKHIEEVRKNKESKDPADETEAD
UniProt P17029: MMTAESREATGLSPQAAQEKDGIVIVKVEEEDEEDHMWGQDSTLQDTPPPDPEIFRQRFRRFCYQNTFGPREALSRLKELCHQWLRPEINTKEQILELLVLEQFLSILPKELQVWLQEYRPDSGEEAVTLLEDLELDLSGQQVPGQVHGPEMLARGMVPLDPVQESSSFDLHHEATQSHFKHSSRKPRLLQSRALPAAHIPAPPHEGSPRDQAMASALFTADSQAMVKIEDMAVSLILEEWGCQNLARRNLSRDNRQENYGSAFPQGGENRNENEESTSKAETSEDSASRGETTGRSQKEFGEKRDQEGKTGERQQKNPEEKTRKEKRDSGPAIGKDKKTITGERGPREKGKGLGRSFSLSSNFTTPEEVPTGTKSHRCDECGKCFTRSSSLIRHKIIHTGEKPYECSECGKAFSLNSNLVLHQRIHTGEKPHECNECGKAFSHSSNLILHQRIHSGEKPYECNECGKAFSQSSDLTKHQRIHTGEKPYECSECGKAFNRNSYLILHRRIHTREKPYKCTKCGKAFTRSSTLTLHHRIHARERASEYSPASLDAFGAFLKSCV
UniProt P28065: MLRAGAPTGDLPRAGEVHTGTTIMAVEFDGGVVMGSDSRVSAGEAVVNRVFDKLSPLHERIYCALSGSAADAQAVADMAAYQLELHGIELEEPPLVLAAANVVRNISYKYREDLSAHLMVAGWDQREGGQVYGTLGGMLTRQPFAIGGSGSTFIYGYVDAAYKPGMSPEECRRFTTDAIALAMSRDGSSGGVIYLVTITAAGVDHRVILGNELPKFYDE
UniProt P17707: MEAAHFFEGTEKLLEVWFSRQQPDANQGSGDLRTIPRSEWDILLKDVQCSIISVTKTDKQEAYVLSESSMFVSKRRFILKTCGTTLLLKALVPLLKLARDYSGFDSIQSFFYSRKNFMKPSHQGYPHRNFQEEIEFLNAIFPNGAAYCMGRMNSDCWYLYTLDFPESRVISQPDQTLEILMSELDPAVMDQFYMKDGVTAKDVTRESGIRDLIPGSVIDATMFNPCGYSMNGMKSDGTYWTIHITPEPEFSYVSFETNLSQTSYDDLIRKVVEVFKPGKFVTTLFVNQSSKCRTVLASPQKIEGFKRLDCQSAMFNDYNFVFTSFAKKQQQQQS
UniProt P18754: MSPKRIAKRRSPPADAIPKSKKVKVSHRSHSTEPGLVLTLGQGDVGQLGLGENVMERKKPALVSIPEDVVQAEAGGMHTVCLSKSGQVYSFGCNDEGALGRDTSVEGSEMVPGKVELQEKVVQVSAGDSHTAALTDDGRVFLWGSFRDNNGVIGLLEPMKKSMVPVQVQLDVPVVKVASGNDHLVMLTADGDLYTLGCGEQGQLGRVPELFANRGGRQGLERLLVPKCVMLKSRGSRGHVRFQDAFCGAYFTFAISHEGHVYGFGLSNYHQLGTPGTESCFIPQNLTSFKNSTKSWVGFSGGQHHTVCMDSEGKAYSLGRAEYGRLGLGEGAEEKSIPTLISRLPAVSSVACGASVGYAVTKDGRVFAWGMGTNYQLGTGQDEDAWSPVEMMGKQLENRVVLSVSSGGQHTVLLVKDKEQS
UniProt P25786: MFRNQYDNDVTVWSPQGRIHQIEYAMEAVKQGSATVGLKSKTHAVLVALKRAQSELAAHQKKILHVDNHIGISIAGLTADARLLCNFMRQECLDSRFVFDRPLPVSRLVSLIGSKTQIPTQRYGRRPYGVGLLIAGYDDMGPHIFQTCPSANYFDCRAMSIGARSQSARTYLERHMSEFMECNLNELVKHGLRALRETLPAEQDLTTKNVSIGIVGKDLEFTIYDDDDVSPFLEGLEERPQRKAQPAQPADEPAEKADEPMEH
UniProt P15531, whole entry: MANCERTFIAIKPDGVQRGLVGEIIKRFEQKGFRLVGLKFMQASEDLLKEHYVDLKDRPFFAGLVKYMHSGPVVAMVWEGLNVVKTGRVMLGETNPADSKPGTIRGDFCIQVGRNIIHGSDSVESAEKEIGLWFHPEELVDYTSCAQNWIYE
UniProt P16401, whole entry: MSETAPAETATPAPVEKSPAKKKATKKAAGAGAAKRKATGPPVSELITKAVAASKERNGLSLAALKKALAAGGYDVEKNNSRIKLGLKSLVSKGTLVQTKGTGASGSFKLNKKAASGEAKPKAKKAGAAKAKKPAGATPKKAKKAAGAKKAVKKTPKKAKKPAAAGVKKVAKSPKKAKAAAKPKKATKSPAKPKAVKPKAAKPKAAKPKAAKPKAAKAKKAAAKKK
UniProt P21281, whole entry: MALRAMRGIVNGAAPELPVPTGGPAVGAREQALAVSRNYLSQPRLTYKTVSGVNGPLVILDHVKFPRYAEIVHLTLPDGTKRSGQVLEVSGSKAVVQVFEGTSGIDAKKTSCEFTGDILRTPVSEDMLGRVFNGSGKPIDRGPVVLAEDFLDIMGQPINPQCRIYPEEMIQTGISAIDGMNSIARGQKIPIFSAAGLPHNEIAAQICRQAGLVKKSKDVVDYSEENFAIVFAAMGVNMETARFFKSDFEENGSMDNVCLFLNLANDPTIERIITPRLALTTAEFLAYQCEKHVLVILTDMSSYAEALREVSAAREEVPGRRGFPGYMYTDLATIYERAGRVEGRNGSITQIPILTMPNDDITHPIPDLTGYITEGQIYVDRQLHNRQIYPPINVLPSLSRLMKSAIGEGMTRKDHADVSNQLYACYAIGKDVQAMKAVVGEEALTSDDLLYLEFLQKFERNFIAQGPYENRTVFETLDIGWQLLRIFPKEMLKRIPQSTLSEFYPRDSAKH
UniProt P17676: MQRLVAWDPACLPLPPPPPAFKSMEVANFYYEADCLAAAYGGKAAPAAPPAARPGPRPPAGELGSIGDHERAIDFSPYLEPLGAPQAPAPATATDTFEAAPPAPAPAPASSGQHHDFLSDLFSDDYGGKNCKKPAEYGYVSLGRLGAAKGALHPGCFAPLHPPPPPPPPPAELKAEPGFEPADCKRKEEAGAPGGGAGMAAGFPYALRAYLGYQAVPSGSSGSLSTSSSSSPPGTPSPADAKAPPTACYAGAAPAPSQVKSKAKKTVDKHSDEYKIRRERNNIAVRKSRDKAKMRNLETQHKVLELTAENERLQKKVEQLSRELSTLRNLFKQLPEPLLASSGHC
UniProt P14859: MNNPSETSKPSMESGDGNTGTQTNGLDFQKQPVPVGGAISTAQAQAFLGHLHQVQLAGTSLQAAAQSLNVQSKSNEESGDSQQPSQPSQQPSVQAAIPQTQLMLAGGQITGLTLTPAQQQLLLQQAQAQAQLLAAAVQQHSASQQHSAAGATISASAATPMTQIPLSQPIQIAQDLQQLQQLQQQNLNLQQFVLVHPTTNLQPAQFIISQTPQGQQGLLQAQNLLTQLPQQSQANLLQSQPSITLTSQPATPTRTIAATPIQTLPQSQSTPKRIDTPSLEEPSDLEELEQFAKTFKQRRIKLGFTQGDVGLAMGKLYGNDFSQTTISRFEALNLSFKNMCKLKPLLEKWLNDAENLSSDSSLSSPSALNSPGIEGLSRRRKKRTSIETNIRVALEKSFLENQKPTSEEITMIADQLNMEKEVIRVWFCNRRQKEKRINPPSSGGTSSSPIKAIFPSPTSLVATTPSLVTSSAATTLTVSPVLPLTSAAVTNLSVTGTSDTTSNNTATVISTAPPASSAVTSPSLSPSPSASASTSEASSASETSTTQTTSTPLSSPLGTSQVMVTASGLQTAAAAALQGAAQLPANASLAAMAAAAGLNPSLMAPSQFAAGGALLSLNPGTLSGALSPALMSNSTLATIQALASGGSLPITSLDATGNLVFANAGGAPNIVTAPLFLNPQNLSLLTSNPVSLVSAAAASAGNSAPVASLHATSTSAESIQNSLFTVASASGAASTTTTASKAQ
UniProt P17980, whole entry: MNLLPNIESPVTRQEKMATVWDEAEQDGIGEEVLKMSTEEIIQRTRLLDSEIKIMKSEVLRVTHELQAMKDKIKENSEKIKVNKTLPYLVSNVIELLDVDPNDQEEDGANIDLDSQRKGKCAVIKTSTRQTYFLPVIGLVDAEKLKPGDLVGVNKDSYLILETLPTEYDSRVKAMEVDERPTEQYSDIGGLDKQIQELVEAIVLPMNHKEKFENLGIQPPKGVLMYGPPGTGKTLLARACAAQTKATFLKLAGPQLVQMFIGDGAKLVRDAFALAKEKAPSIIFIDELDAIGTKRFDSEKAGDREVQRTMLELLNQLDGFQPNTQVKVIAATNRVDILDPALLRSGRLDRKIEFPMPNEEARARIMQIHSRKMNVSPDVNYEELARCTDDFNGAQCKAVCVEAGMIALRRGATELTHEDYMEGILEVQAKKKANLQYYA
UniProt P27695, whole entry: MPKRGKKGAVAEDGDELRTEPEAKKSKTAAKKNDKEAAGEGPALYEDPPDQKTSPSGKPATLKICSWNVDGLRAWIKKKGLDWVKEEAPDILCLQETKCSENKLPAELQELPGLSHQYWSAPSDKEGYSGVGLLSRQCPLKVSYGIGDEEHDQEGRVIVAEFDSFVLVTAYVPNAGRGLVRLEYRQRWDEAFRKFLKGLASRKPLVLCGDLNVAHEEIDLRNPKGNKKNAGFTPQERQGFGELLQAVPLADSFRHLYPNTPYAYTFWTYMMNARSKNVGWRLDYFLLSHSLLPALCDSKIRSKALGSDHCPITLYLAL
UniProt P22087: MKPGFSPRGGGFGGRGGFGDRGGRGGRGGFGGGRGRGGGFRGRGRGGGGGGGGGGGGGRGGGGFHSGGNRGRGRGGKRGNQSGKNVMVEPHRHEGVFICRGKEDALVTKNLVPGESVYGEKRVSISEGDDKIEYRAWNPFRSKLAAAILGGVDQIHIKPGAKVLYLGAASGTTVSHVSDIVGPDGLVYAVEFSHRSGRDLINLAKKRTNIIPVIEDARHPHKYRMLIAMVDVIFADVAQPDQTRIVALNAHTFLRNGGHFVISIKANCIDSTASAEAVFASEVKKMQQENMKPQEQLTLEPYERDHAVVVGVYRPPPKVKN
UniProt P18054: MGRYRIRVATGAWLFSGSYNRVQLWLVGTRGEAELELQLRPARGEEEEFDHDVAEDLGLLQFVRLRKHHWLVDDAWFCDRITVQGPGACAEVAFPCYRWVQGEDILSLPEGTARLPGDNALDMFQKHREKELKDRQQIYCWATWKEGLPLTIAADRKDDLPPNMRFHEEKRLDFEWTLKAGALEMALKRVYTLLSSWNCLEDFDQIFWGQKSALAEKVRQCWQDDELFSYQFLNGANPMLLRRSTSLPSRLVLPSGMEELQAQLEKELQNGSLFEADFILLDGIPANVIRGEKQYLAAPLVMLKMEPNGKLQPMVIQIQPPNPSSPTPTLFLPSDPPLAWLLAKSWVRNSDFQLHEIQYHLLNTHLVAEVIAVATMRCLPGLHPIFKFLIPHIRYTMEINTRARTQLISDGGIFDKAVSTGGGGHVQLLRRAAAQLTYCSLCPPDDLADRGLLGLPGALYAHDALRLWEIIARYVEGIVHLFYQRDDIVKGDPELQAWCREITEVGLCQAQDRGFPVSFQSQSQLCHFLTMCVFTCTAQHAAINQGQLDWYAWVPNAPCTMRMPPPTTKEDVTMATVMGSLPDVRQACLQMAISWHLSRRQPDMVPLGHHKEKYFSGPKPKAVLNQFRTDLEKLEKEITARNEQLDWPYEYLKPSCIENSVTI
UniProt P22626: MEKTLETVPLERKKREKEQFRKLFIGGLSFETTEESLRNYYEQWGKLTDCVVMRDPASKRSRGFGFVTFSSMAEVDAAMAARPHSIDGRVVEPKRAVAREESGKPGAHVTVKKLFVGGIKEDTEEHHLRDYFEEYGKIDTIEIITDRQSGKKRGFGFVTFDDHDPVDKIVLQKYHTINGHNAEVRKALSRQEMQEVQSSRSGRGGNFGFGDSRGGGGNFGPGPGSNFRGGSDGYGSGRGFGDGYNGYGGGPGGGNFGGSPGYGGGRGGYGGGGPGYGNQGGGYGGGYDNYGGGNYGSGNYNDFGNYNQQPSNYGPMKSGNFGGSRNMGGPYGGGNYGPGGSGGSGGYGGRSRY

Some of the results follow. Most entries show no effect beyond the scatter of the controls.

Take “PSMA3 (peptide sequence: AFELELSWVGELTNGRHEIVPK, peptide start residue: 209) (UniProt P25788)”: the log2 fold change is -0.951. In the case of “UniProt P22531 (peptide sequence: QPCQPPPVCPTPK, peptide start residue: 10)” it was -0.0952. Consider “MSN (peptide sequence: GMLREDAVLEYLK, peptide start residue: 181) (UniProt P26038)”, for which the log2 fold change is 0.288. In the case of “STMN1 (peptide sequence: NKESKDPADETEAD, peptide start residue: 136) (UniProt P16949)” it was -0.184; in that of “AGA (peptide sequence: NCQPNYWR, peptide start residue: 162) (UniProt P20933)”, -0.269; in that of “IGFBP4 (peptide sequence: GELDCHQLADSFRE, peptide start residue: 245) (UniProt P22692)”, 0.152. Regarding “ZKSCAN1 (peptide sequence: AETSEDSASRGETTGR, peptide start residue: 281) (UniProt P17029)”, the log2 fold change is -0.466. In the case of “PSMB9 (peptide sequence: AGAPTGDLPR, peptide start residue: 4) (UniProt P28065)” it was -0.123.

Consider “AMD1 (peptide sequence: DVQCSIISVTK, peptide start residue: 46) (UniProt P17707)”, for which the log2 fold change was -0.75. In the case of “RCC1 (peptide sequence: SGQVYSFGCNDEGALGR, peptide start residue: 85) (UniProt P18754)” it was -0.289. Regarding “TCF4 (peptide sequence: MVQLHLK, peptide start residue: 590) (UniProt P15884)”, the log2 fold change came out at 0.443. As to “UniProt P14618 (peptide sequence: EAEAAIYHLQLFEELRR, peptide start residue: 384)”, the log2 fold change is 0.262. Consider “PSMA1 (peptide sequence: AQSELAAHQKK, peptide start residue: 52) (UniProt P25786)”, for which the log2 fold change is 0.273. The value for “NME1 (peptide sequence: VMLGETNPADSKPGTIR, peptide start residue: 89) (UniProt P15531)” was -0.112; that for “HIST1H1B (peptide sequence: KATGPPVSELITK, peptide start residue: 37) (UniProt P16401)” was -0.0893; that for “ATP6V1B2 (peptide sequence: TVSGVNGPLVILDHVKFPR, peptide start residue: 49) (UniProt P21281)” was 0.178.

For the target “CEBPB (peptide sequence: GALHPGCFAPLHPPPPPPPPPAELK, peptide start residue: 150) (UniProt P17676)”, the log2 fold change is -0.173. In the case of “IDE (peptide sequence: VSVHVLAR, peptide start residue: 954) (UniProt P14735)” it was -0.708; in that of “POU2F1 (peptide sequence: TIAATPIQTLPQSQSTPK, peptide start residue: 255) (UniProt P14859)”, 0.0352. As to “MTHFD2 (peptide sequence: SKELGVATN, peptide start residue: 342) (UniProt P13995)”, the log2 fold change was -0.178. Regarding “GTF2F2 (peptide sequence: EIGVQNVK, peptide start residue: 219) (UniProt P13984)”, the log2 fold change came to 0.186.

For “PSMC3 (peptide sequence: KMNVSPDVNYEELAR, peptide start residue: 372) (UniProt P17980)”, the log2 fold change was determined as 0.196. Turning to “APEX1 (peptide sequence: KGAVAEDGDELRTEPEAK, peptide start residue: 7) (UniProt P27695)”, the log2 fold change is -0.0749. The value for “FBL (peptide sequence: NVMVEPHRHEGVFICR, peptide start residue: 85) (UniProt P22087)” was -0.115; that for “LCP1 (peptide sequence: NWMNSLGVNPR, peptide start residue: 402) (UniProt P13796)” was 0.446; that for “UniProt P18054 (peptide sequence: TDLEKLEK, peptide start residue: 629)” was -0.0602. In the case of “HNRNPA2B1 (peptide sequence: YHTINGHNAEVRK, peptide start residue: 174) (UniProt P22626)” it was -0.21; in that of “VARS (peptide sequence: LGSSLDWDR, peptide start residue: 434) (UniProt P26640)”, 0.249.

For the origin of these results see the supplement of paper PMC12819154, “High-throughput peptide-centric local stability assay extends protein–ligand identification to membrane proteins, tissues and bacteria” (Nature Structural & Molecular Biology, 2025).
